Laboratory results taken from publication PMC8216455.
Results are given in words; binding and its absence hold for the method and conditions named. Binding seen in cells or lysates may run through a third protein. Here binding means that the protein was enriched with, or labelled near, the bait; the list need not be complete. For some of these results: A no says only that the protein was not detected with the bait.

Protein sequences, listed by entry. Tags and fused reporters are not part of them. Lines headed by an entry give the natural chain unless they say otherwise; changes in a name come on top.
UniProt I7MMT8: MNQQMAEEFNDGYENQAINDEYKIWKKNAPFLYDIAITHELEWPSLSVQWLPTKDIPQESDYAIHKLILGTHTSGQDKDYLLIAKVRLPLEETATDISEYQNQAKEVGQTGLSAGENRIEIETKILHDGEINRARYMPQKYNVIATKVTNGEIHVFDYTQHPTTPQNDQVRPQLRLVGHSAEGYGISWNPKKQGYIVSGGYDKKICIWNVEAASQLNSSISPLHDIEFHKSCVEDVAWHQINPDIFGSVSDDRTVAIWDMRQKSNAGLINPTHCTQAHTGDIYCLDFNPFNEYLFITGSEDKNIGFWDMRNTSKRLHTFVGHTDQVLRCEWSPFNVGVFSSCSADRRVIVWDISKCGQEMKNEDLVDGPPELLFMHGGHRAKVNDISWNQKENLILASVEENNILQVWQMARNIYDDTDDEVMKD
UniProt I7MML9: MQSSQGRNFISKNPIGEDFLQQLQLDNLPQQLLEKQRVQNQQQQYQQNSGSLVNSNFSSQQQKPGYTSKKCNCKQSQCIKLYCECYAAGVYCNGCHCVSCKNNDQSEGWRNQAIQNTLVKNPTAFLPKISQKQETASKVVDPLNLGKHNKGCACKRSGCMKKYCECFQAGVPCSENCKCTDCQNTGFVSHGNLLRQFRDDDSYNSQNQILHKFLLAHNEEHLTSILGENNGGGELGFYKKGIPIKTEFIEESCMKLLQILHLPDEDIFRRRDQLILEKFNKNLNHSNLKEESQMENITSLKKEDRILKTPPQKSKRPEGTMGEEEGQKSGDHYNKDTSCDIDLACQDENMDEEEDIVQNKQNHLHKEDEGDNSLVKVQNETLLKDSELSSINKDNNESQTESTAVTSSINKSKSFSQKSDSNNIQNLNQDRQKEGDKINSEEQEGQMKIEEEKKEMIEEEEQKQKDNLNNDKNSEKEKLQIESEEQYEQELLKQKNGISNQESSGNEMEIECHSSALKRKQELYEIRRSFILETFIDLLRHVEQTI
UniProt I7MKQ3: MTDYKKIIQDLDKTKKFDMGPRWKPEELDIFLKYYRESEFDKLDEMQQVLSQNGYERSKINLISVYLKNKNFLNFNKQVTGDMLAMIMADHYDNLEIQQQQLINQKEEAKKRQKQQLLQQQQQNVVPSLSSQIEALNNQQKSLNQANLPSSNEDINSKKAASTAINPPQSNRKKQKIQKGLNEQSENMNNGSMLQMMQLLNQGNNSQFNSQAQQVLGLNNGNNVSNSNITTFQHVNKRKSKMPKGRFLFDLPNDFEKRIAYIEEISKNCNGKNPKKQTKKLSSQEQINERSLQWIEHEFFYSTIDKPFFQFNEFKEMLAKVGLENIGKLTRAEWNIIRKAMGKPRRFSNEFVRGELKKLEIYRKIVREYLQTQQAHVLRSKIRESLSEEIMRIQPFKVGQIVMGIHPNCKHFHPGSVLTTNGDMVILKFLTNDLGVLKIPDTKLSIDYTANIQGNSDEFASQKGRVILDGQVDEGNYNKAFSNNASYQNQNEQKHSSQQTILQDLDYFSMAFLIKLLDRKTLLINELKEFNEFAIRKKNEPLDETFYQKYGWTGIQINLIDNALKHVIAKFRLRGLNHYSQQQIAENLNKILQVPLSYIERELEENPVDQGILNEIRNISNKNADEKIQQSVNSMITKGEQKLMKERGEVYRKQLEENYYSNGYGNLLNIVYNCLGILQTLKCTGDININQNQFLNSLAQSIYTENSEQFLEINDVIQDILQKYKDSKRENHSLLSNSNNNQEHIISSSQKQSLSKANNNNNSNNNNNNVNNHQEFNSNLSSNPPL
UniProt Q09028: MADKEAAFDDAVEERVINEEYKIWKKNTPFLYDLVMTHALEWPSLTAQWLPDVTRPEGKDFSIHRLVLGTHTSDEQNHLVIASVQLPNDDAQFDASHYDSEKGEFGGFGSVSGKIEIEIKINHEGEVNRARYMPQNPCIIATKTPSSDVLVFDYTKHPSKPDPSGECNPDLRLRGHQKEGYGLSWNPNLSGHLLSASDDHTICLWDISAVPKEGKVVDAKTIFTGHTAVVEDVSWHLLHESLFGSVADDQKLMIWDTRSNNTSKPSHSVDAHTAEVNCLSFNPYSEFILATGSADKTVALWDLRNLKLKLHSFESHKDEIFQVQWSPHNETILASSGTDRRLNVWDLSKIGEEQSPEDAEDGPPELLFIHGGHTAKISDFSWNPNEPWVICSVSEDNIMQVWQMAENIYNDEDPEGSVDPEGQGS
UniProt I7MFN1: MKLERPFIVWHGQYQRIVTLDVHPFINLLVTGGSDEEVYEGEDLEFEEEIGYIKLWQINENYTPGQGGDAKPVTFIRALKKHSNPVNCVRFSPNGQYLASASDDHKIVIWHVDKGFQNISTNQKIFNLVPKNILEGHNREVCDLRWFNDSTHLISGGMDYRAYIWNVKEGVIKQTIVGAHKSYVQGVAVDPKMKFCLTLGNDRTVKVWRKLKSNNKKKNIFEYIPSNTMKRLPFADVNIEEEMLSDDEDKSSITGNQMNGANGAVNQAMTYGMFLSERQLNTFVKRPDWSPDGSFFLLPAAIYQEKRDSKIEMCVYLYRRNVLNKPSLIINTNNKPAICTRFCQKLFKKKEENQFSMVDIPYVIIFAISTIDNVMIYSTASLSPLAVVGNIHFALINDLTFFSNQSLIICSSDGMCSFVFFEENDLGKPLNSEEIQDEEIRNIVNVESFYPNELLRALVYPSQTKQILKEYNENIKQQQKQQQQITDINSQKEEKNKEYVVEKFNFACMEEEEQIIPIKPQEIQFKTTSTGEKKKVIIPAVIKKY
UniProt Q23BX5: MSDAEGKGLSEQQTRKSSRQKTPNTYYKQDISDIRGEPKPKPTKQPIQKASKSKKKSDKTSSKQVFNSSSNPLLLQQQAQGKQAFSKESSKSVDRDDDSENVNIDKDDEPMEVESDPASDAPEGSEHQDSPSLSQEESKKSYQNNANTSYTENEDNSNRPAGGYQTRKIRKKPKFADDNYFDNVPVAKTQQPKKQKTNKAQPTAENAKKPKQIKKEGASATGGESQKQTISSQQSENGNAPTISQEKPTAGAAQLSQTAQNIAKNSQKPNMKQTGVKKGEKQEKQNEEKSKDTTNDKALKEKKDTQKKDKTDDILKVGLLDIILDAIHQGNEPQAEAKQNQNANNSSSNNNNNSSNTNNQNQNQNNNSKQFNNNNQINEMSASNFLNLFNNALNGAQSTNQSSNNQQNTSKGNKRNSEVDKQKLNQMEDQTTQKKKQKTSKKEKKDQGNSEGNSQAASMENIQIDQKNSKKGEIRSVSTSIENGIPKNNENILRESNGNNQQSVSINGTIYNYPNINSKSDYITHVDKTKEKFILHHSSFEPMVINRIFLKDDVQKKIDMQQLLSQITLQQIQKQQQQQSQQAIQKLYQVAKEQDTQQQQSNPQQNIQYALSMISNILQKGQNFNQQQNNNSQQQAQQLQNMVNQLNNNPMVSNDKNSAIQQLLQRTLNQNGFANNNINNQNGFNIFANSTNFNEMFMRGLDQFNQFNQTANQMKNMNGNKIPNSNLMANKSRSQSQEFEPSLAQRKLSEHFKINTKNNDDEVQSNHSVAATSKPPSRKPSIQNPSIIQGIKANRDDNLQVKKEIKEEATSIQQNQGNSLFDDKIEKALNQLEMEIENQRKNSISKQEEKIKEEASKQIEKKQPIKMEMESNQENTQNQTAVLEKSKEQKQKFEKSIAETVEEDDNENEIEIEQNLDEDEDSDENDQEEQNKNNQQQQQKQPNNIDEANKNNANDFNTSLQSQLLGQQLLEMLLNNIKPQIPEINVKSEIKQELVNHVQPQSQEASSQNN
UniProt O14929: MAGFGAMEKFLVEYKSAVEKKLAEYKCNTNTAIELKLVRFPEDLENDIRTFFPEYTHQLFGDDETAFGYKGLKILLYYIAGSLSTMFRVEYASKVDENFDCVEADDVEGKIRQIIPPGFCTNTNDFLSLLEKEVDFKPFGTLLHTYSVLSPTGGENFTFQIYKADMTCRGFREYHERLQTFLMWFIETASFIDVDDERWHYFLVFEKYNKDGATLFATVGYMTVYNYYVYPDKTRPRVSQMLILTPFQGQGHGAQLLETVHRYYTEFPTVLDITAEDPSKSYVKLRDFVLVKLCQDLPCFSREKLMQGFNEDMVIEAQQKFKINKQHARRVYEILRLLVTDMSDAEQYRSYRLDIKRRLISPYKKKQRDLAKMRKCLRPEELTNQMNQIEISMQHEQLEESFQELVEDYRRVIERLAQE
UniProt I7M9A9: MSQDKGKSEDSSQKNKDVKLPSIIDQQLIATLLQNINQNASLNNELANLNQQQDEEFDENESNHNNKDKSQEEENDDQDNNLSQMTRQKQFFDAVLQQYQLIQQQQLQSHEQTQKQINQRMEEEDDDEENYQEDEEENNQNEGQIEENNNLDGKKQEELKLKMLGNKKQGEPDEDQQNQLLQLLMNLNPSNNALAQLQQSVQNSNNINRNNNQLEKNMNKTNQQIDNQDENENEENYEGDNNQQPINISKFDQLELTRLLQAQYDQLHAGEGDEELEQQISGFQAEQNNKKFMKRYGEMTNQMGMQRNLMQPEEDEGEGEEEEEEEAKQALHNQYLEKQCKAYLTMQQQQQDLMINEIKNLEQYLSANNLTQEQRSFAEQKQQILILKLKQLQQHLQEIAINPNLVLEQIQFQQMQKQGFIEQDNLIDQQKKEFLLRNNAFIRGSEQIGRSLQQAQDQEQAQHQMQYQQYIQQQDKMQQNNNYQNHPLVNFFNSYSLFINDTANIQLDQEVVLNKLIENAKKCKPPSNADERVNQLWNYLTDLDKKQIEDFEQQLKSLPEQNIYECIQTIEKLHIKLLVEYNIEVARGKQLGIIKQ
UniProt I7M4G6: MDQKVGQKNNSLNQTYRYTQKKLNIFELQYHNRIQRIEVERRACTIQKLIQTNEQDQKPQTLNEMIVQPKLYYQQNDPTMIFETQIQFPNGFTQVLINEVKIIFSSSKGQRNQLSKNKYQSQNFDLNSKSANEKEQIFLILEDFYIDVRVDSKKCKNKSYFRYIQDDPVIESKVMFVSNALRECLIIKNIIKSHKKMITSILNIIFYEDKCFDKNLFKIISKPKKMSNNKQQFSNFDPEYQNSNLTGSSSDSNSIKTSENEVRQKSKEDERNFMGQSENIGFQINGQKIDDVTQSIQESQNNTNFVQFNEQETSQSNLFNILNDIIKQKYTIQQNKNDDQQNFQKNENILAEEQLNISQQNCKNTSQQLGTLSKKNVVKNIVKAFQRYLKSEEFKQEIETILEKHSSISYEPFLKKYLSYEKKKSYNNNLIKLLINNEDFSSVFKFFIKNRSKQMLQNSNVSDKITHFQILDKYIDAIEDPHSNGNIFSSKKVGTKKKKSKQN
UniProt Q23BW6: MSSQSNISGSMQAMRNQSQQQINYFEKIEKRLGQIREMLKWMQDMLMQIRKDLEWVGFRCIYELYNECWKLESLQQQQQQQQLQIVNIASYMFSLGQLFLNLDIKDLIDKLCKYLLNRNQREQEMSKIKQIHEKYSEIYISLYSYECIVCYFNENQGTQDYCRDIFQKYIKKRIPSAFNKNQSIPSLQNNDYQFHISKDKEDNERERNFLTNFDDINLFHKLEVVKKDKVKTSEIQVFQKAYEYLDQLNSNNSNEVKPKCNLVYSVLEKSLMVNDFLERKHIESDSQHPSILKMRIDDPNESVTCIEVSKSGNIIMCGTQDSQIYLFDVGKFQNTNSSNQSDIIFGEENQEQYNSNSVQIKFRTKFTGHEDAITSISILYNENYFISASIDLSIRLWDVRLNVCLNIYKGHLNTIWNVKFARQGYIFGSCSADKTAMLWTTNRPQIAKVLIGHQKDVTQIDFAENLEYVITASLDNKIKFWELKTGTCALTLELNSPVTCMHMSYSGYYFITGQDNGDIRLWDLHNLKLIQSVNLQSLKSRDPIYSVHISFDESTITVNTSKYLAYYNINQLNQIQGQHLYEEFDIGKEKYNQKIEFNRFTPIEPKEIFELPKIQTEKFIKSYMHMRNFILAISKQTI
UniProt Q22A33: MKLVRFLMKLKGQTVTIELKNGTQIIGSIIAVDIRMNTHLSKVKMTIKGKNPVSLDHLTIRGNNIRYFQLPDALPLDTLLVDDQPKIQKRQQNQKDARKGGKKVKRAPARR
UniProt Q22RW2: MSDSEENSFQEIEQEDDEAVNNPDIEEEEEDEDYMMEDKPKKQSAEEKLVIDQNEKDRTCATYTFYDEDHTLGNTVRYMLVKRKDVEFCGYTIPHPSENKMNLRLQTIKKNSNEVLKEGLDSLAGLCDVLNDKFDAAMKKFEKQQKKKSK
UniProt Q22W41: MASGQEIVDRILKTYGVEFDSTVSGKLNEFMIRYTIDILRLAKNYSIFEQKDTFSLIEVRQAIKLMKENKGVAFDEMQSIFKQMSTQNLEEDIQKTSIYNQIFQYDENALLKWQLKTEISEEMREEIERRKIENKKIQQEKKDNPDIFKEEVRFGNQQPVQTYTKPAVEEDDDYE

Legend:
[1] = target: RebL1-FZZ (Tetrahymena thermophila) (UniProt I7MMT8); test: affinity purification with mass spectrometry; conjugating Tetrahymena harvested 5 hours post mixing; FZZ-tagged bait; whole cell extract in 10 mM Tris-HCl pH 7.5, 1 mM MgCl2, 300 mM NaCl, 0.2% NP40, Benzonase; M2-agarose at 4°C; SAINTexpress, FDR ≤ 0.01 (Aip1: FDR ≤ 0.03)
[2] = target: RebL1-FZZ (Tetrahymena thermophila) (UniProt I7MMT8); test: affinity purification with mass spectrometry; vegetatively growing Tetrahymena; FZZ-tagged bait from its endogenous MAC locus; whole cell extract in 10 mM Tris-HCl pH 7.5, 1 mM MgCl2, 300 mM NaCl, 0.2% NP40, Benzonase; M2-agarose at 4°C; SAINTexpress, FDR ≤ 0.01, against untagged cells
[3] = target: Anqa1-FZZ (TTHERM_00766460) (Tetrahymena thermophila) (UniProt I7MML9); test: affinity purification with mass spectrometry; conjugating Tetrahymena harvested 5 hours post mixing; FZZ-tagged bait; whole cell extract in 10 mM Tris-HCl pH 7.5, 1 mM MgCl2, 300 mM NaCl, 0.2% NP40, Benzonase; M2-agarose at 4°C; SAINTexpress, FDR ≤ 0.01 (Aip1: FDR ≤ 0.03)
[4] = target: Anqa1-FZZ (TTHERM_00766460) (Tetrahymena thermophila) (UniProt I7MML9); test: affinity purification with mass spectrometry; vegetatively growing Tetrahymena; FZZ-tagged bait from its endogenous MAC locus; whole cell extract in 10 mM Tris-HCl pH 7.5, 1 mM MgCl2, 300 mM NaCl, 0.2% NP40, Benzonase; M2-agarose at 4°C; SAINTexpress, FDR ≤ 0.01, against untagged cells
[5] = target: Lin9^Tt-FZZ (Tetrahymena thermophila) (UniProt I7MKQ3); test: as above
[6] = target: EGFP-tagged RBBP7 (human) (UniProt Q16576); test: affinity purification with mass spectrometry; HEK293 (Flp-In T-REx) cells expressing GFP-tagged bait, 24 h doxycycline; lysis in 10 mM Tris-HCl pH 8.0, 420 mM NaCl, 0.1% NP-40, sonicated, Benzonase; anti-GFP antibody and Protein G Dynabeads; SAINTexpress, FDR ≤ 0.01, against GFP alone
[7] = target: EGFP-tagged RBBP4 (human) (UniProt Q09028); test: as above

Substance | binding [1] | binding [2] | binding [3] | binding [4] | also measured
TTHERM_00219420, similar to the human p60 (S. cerevisiae Cac2) subunit of the CAF1 complex (from UniProt I7MFN1) | binds | binds |  |  | 
Lin9^Tt (TTHERM_00591560) (from UniProt I7MKQ3) | binds | binds | binds | binds | 
MybL1, putative MYB-like TF (TTHERM_00842380) (from UniProt I7MAZ7) | binds | binds | binds | binds | 
Jinn1 (TTHERM_00227070) (from UniProt Q23BX5) | binds | binds | binds | binds | binding [5]: binds
Hat1 (human) (from UniProt O14929 1-419) |  |  |  |  | binding [6]: binds; binding [7]: no binding
transcriptional regulatory protein Spt6 (TTHERM_01093550) (from UniProt Q22BP0) |  |  | binds |  | 
Jinn2 (TTHERM_00147500) (from UniProt I7M9A9) | binds | binds | binds | binds | binding [5]: binds
Forc1, Friend of RebL1 in conjugation (TTHERM_00841280) (from UniProt I7M4G6) | binds |  |  |  | 

More lines, main results first:

binding [1] | binding [2] | binding [3] | binding [4] | Substance | also measured
 |  | binds |  | TFIID subunit 5 (TTHERM_00227160) (from UniProt Q23BW6) | 
 |  | binds |  | small nuclear ribonucleoprotein Sm (TTHERM_01289080) (from UniProt Q22A33) | 
 |  | binds |  | RNA polymerase subunit Rpc19 (TTHERM_00011760) (from UniProt Q22RW2) | 
binds | binds |  |  | Anqa1 (Lin54-like protein, TTHERM_00766460) (from UniProt I7MML9) | binding [5]: binds
 |  | binds | binds | RebL1 (retinoblastoma binding protein 4/7-like 1), TTHERM_00688660 (from UniProt I7MMT8) | binding [5]: binds
 |  | binds |  | transcription factor TFIID (TTHERM_00160910) (from UniProt Q22W41) | 
